# Assay results from the supplement of paper PMC10338343.
# ± gives the standard deviation. The list shows a part of the results, in another mix than the full data. The uncertainty is large for many entries.
# Tests used:
# [1] = test system: MILI (PIWIL2) piRISC loaded with piRNA #1 (26 nt); assay: pre-steady-state target cleavage rate (min^-1); higher = faster piRNA-guided slicing of the target; details: guide: piRNA #1 5'p-UGAGGUAGUAGGUUGUAUAGUAUCCA; auxiliary factor: 500 nM mouse GTSF1
# How it was run: (§1)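 In HEPES–potassium acetate buffer at 33 °C, […] transcribed, DNA-blocked target RNA library was mixed with 1 nM active affinity-purified piRISC carrying one synthetic guide, with or without 500 nM GTSF1 partner protein, for 0–8 or 0–960 min. Uncleaved targets were sequenced and normalised to depth and to weakly complementary targets; three trials were pooled and k3 was capped at 0.0001 min^-1. The pre-steady-state cleavage rate followed from a burst-and-steady-state fit.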
# [2] = test system: MIWI (PIWIL1) piRISC loaded with piRNA #1 (30 nt); assay: as above; details: guide: piRNA #1 5'p-UGAGGUAGUAGGUUGUAUAGUAUCCAGAGG; auxiliary factor: 500 nM mouse GTSF1
# How it was run: as §1
# [3] = test system: EfPiwi piRISC loaded with piRNA #1 (26 nt); assay: pre-steady-state target cleavage rate (min^-1); guide: piRNA #1 5'p-UGAGGUAGUAGGUUGUAUAGUAUCCA; MIWI and MILI are mouse PIWI proteins and EfPiwi is from a freshwater sponge; tags in brackets are library labels; higher = faster piRNA-guided slicing of the target; details: auxiliary factor: 500 nM Ephydatia muelleri Gtsf1
# How it was run: as §1
Sequence,pre-steady-state target cleavage rate [1],pre-steady-state target cleavage rate [2],pre-steady-state target cleavage rate [3]
GGAGACCUAUGAUUACUACCUUCUACCUCA,0.0014 ± 0.0037,0.000383 ± 0.0052,0.000324 ± 0.0073
GGAGACCUAUGUAUACAUACCUACUACCUCA,0.00105 ± 0.008,0.000655 ± 0.012,0.000338 ± 0.011
GGAGACCUAUGAUAUGAAGGUACUACCUCA,0.000607 ± 0.0083,0.00125 ± 0.0052,0.000573 ± 0.0051
GGAGUGGAUACUAUACAACCUCACUACCUCA,0.00285 ± 0.003,0.00226 ± 0.0032,0.00417 ± 0.0022
GGAGAGGAAACUAUACAUCCUACUACCUCA,0.302 ± 0.029,1.19 ± 0.074,0.00711 ± 0.0026
GGAGACCUAUGAUUUCAACCAACUACCUCA,0.00184 ± 0.0036,0.000335 ± 0.0076,0.000395 ± 0.0069
GGAGACCUAUGAUAACAACCUACUACGAGA,0.000688 ± 0.009,0.000421 ± 0.017,0.000837 ± 0.008
GGAGACCUAACUAUAGAACCUACUAGCUCA,0.00426 ± 0.0041,0.00321 ± 0.0051,0.00137 ± 0.0087
GGAGACCUAUGAUAUGUUGGUGCUACCUCA,0.000123 ± 0.035,0.000404 ± 0.013,0.000321 ± 0.017
GGAGUGGAUACUAUACAAACCUACUACCUCA,0.00274 ± 0.0034,0.00188 ± 0.0044,0.0643 ± 0.023
GGAGACCUAUGAUAUCAACCAACAACCUCA,0.000352 ± 0.0091,0.000407 ± 0.0074,0.000424 ± 0.018
GGAGACCUAUGAUUACAACCACUACCUCA,0.000496 ± 0.011,0.000791 ± 0.0068,0.000744 ± 0.008
GGAGACCUAUGAUAACAUACCUACUACCUCA,0.000724 ± 0.0071,0.000153 ± 0.016,0.000204 ± 0.012
GGAGACCUAUGAAUACAACCUACUAGCACA,0.00098 ± 0.0064,0.000131 ± 0.012,0.000131 ± 0.027
GGAGUAGAUACUAUACAACCUACUACCUCA,0.186 ± 0.0093,1.55 ± 0.074,0.158 ± 0.057
GGAGACCUAUGAUUACAACCUACUACCAGA,0.00204 ± 0.0035,0.00018 ± 0.012,0.00104 ± 0.0071
GGAGACCUAUGAUAAGAACCUACUACGUCA,0.000108 ± 0.022,0.000124 ± 0.015,0.000101 ± 0.026
GGAGACCUAUGAAUACAACCUUCUAGCUCA,0.000403 ± 0.0081,0.000165 ± 0.014,0.000712 ± 0.01
GGAGACCUAUGAUAACAACCUACUAUCUCA,0.00246 ± 0.0027,0.000248 ± 0.0077,0.000887 ± 0.0074
GGAGACCAUACUAUACAACCUUGAUGGAGA [g10:g23:cont:t1A],0.00032 ± 0.026,0.000171 ± 0.021,0.000524 ± 0.0059
GGAGACCUAUCUAUACAACCAACAACCUCA,0.0022 ± 0.0046,0.000378 ± 0.011,0.000124 ± 0.036
GGAGACCUAUGAUAACAACCUAGUACCUCA,0.00226 ± 0.0026,0.00142 ± 0.0026,0.000556 ± 0.0072
GGAGACCUAUGAUUACAACCUUACUACCUCA,0.00155 ± 0.004,0.000235 ± 0.0076,0.000681 ± 0.0081

# Three entries drawn at random from the list so far, as already listed:
Sequence,pre-steady-state target cleavage rate [1],pre-steady-state target cleavage rate [2],pre-steady-state target cleavage rate [3]
GGAGACCAUACUAUACAACCUUGAUGGAGA [g10:g23:cont:t1A],0.00032 ± 0.026,0.000171 ± 0.021,0.000524 ± 0.0059
GGAGACCUAUGAUAUGUUGGUGCUACCUCA,0.000123 ± 0.035,0.000404 ± 0.013,0.000321 ± 0.017
GGAGACCUAUGAUAACAUACCUACUACCUCA,0.000724 ± 0.0071,0.000153 ± 0.016,0.000204 ± 0.012

# Later entries

Sequence,pre-steady-state target cleavage rate [1],pre-steady-state target cleavage rate [2],pre-steady-state target cleavage rate [3]
GGAGUGGAUACUAUACAACCAUGAUGGAGA [g11:g26:cont:t1A],0.00117 ± 0.0053,0.00047 ± 0.011,0.0021 ± 0.0028
GGAGACCUAUGAUAUCAACUACUACCUCA,0.000242 ± 0.01,0.000105 ± 0.016,0.000671 ± 0.0095
GGAGACCUAUGAUUACAACCUAGUACGUCA,0.00065 ± 0.0074,0.000737 ± 0.0063,0.00162 ± 0.0049
GGAGACCUAUCUAUACAACCUGACUACCUCA,0.00288 ± 0.0031,0.00102 ± 0.0059,0.00169 ± 0.0054
GGAGACCUAUGUAUACAACCUAGUAGCUCA,0.00126 ± 0.0043,0.00126 ± 0.0039,0.00193 ± 0.0069
GGAGACCUAACUAUACAACGUACUAGCUCA,0.0048 ± 0.0062,0.024 ± 0.0084,0.00367 ± 0.0038
GGAGACCUAUGAUUACAUCCUACUAGCUCA,0.00651 ± 0.0025,0.000851 ± 0.0052,0.00121 ± 0.0057
GGAGACCUAUGAUUACAACCUUCUAGCUCA,0.00137 ± 0.0045,0.000208 ± 0.0093,0.000285 ± 0.0092
GGAGACCUAUGAUAUGUUGGUCUACCUCA,0.000307 ± 0.015,0.000379 ± 0.011,0.00101 ± 0.0053
GGAGACCUAUGAAUACAUACCUACUACCUCA,0.000558 ± 0.0094,0.000626 ± 0.0068,0.000445 ± 0.0094
GGAGACCUAUGAUAUGUUGCUACUACCCUCA,0.000268 ± 0.014,0.000104 ± 0.011,0.000562 ± 0.0062
GGAGACCUAUGAUAUGAUGCUACUACCUCA,0.00043 ± 0.0085,0.001 ± 0.0058,0.00159 ± 0.0047
GGAGACCUAUGAUUACAAGCUACUACCUGA,0.0183 ± 0.0056,0.00108 ± 0.0059,0.000623 ± 0.0066
GGAGACCUAUGAUAUCAACCUACUUCCACA,0.000175 ± 0.018,–,< 0.0001
GGAGACGAUACUAUACCAACCUACUACCUCA,0.0605 ± 0.013,–,0.0123 ± 0.0043
GGAGACCUAACUAUACUAACCUACUACCUCA,0.000375 ± 0.033,–,0.0037 ± 0.0043
GGAGACCUAUGAUAUCAACCAACUACCUCA,0.00104 ± 0.0048,0.000134 ± 0.019,0.000261 ± 0.01
GGAGUGGAUACUAUACAACCUACAACGUCA,0.000949 ± 0.0044,0.0012 ± 0.0032,0.00302 ± 0.0017
GGAGACCUUACUAUUCAACCUACUACCUGA,0.0942 ± 0.014,–,0.00271 ± 0.0042
GGAGACCAUACUAUACAACCUACUACCUCU [g2:g23:cont:t1U],0.254 ± 0.024,1.7 ± 0.11,1.45 ± 0.55
GGAGACCUAUGAAUACAACCUAUCUACCUCA,0.00974 ± 0.0026,0.00145 ± 0.0043,0.000182 ± 0.015
GGAGACCUAUGAUAACAAGGUACUACCUCA,0.00105 ± 0.006,0.000741 ± 0.0071,0.000727 ± 0.0081
GGAGACGAUACUAUACAACCUUGUACCUCA,0.00274 ± 0.0031,–,0.00308 ± 0.002
